Data published in paper doi:10.1101/2025.02.04.636234.
These are yes or no findings as the source states them, for the method shown. In cells and extracts the contact can be indirect. Some results given as binding are weak or reduced against the parent protein; the word gives no strength. Where a sequence is shown, tags or fusion partners need not be part of it.

How the values were obtained:
Experiment in all cases: co-IP
[1] = biological target: T1, PRR5-HA (Arabidopsis thaliana) (UniProt Q6LA42)
T1 sequence: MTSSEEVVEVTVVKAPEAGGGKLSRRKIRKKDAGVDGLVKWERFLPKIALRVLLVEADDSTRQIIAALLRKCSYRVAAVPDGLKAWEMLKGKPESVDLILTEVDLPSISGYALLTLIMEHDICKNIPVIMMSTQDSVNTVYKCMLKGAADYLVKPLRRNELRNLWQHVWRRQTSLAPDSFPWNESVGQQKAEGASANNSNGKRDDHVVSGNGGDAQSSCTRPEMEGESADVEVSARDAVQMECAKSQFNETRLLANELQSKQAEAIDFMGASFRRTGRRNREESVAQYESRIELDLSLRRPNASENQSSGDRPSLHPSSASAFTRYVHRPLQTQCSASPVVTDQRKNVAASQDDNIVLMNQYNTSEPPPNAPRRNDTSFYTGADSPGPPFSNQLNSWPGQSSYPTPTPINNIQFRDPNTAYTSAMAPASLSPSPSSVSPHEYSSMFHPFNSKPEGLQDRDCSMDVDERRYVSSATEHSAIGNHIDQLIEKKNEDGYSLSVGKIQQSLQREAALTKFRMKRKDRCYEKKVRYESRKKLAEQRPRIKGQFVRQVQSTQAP

[2] = biological target: T2, PRR7-HA (Arabidopsis thaliana) (UniProt Q93WK5)
T2 sequence: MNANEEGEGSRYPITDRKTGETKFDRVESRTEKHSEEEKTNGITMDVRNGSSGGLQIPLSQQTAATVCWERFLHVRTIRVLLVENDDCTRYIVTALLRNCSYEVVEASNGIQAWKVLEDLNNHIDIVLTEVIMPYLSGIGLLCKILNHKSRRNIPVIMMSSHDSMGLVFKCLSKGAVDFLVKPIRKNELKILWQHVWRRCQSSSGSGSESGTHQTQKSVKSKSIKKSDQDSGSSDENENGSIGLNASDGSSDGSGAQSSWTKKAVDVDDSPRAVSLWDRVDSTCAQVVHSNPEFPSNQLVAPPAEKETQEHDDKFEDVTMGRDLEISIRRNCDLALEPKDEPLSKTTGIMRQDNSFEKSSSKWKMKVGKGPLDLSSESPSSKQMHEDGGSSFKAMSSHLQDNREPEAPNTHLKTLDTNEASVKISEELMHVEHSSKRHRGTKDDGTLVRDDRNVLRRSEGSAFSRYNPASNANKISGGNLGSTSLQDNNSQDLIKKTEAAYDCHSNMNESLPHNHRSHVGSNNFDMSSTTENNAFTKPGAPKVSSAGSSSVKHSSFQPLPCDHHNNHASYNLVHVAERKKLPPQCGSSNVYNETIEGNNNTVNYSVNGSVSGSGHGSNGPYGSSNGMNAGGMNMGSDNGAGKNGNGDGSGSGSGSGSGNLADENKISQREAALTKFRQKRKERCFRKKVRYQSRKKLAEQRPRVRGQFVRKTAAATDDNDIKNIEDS

[3] = biological target: T3, PRR9-HA (Arabidopsis thaliana) (UniProt Q8L500)
T3 sequence: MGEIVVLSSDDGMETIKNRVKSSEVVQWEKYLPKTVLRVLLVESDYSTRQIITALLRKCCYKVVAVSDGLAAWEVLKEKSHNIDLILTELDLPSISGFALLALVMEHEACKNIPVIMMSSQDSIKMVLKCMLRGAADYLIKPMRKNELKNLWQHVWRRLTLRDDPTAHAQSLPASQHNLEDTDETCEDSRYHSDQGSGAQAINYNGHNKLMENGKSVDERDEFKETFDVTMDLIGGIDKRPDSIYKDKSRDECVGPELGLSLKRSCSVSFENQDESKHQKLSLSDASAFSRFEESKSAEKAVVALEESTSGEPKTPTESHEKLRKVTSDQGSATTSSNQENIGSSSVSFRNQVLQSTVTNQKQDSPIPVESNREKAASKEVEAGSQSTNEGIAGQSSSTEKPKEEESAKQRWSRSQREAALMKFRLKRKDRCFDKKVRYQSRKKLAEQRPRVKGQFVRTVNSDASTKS

[4] = biological target: T4, TOC1-HA (Arabidopsis thaliana) (UniProt Q9LKL2)
T4 sequence: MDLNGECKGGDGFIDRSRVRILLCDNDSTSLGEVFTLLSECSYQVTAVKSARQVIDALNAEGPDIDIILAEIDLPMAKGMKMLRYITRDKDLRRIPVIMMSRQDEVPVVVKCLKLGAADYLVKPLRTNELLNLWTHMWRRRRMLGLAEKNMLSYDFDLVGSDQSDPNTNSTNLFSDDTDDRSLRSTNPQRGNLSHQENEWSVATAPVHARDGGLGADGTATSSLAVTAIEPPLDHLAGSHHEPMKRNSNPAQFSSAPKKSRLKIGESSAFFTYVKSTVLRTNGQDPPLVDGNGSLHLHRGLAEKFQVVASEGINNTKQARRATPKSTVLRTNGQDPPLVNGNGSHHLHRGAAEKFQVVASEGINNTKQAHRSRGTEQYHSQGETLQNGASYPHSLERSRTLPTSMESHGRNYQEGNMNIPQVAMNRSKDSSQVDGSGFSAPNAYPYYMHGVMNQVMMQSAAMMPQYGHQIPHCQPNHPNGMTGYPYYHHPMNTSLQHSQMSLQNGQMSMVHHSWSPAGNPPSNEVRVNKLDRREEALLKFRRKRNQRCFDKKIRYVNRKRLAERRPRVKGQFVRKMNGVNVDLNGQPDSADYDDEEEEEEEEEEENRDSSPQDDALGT

Measured: binding

B1: mTurq-LWD1 (protein, UniProt Q9LPV9 1-346)
chain: MGTSSDPIQDGSDEQQKRSEIYTYEAPWHIYAMNWSVRRDKKYRLAITSLLEQYPNRVEIVQLDESNGEIRSDPNLSFEHPYPPTKTIFIPDKECQRPDLLATSSDFLRLWRIADDHSRVELKSCLNSNKNSEFCGPLTSFDWNEAEPRRIGTSSTDTTCTIWDIEREAVDTQLIAHDKEVFDIAWGGVGVFASVSADGSVRVFDLRDKEHSTIIYESSEPDTPLVRLGWNKQDPRYMATIIMDSAKVVVLDIRFPALPVVELQRHQASVNAIAWAPHSSCHICTAGDDSQALIWDISSMGQHVEGGLDPILAYTAGAEIEQLQWSSSQPDWVAIAFSTKLQILRV
binds: all assays above
